Results from US6900019B1, “In-situ cell extraction and assay method” (Amersham Biosciences UK Limited, priority 1997, dated 2005).
Values joined by “and” are separate entries in the source; they are usually repeats but may differ in a detail not shown here. Equal entries are not always repeated. At least one structure is not confirmed: it was looked up by name or label, or the drawing left a doubt.

System: rabbit anti-cAMP sera (antigen:antibody binding)
Assay: Scintillation proximity radioimmunoassay for cAMP: standard curves with lysis reagents and sequestrants
Details: no sequestrant
Protocol: All assays were carried out in microtitre plates compatible with a microtitre plate beta scintillation counter. Standards (50 μl; 0.2-12.8 pmol/well), antisera (50 μl; at 1:11000 dilution), tracer (50 ul; 10000-20000 cpm) are added to anti-rabbit coated SPA beads (50 μl; 20 mg/ml). Non-specific binding was determined in the absence of specific rabbit antisera. SPA anti-rabbit reagent is placed onto a magnetic stirrer to ensure a homogeneous suspension before pipetting. All wells contained a total volume of 200 μl. The plates were sealed and incubated at room temperature (15-30° C.) for 15-20 hours. The amount of [^125I]cAMP bound to the SPA fluomicrospheres was determined by counting in a microtitre plate beta scintillation counter for 2 minutes.
Experiments were set up with:— • a) Working standards (4-256 pmol/ml; 0.2-12.8 pmol/well) were prepared in assay buffer (0.05M sodium acetate buffer containing 0.01% sodium azide) only (control) or assay buffer containing lysis reagent (e.g. DTAB, CPC or SDS; see experiment 1) at various concentrations. • b) Rabbit anti-cAMP sera prepared in assay buffer only (control) or assay buffer containing sequestrating agent at various concentrations depending on the experiment. • c) Radioactive tracer: adenosine 3′ 5′-cyclic phosphoric acid 2′-O-succinyl-3-[^125I] iodotyrosine methyl ester prepared in assay buffer only (control) or assay buffer containing sequestrating agent at various concentrations depending on the experiment. • d) Donkey anti-rabbit IgG coupled to scintillation proximity fluomicrospheres prepared in assay buffer only (control) or assay buffer containing sequestrating agent at various concentrations depending on the experiment. Experiment 1: Inhibition of Antigen and Antibody Binding by Several Lysis Reagents Method
In these experiments, standard curves were prepared for cAMP using the SPA immunoassay technique, described above, where working standards of cAMP were prepared in several lysis reagents at 1% (w/v) or 2% (w/v) final concentration. The detergents investigated included dodecyl trimethyl ammonium bromide (DTAB; Sigma Chemical Co. D8638), benzethonium chloride (BZC; Aldrich; B470-8), cetyl pyridinium chloride (CPC; Sigma Chemical Co; C9002), sodium dodecyl sulphate (SDS, Sigma chemical Co; L4509) and N-dodecyl-N,N-dimethyl-3-ammonio-1-propanesulphonate (DDAPS; Sigma Chemical Co.; D4516).
In these experiments, standard curves for cAMP were prepared using the SPA immunoassay technique described above, where working standards of cAMP were prepared in 1% (w/v), 1.5% (w/v) or 2% (w/v) lysis reagents (DTAB, SDS or CPC). The control consisted of no lysis reagent or cyclodextrin added. The effect including 2.5% (w/v) alpha-cyclodextrin (alpha-CD) (Sigma Chemical Co.; C4642) on antigen:antibody binding was investigated. Here, tracer, antisera and SPA beads were prepared in assay buffer containing 2.5% (w/v) alpha-CD. A second control tested the effect of 2.5% (w/v) alpha-CD on the standard curve without addition of lysis reagent.
In this experiment, standard curves for cAMP were prepared using the SPA radioimmunoassay where working standards of cAMP were prepared in 1% (w/v) DTAB. The effect of including 1% (w/v), 2% (w/v), 2.5% (w/v) and 5% (w/v) alpha-cyclodextrin on antigen:antibody binding was investigated. Here, tracer, antisera and SPA beads were prepared in assay buffer containing alpha-CD at the above concentrations. The control consisted of no lysis or cyclodextrin added to the assay.
In this experiment, standard curves for cAMP were prepared using the SPA immunoassay technique where working standards were prepared 1% (wt) lysis reagent (DTAB). The effect of including 2.5% (w/v) alpha-cyclodextrin (CD) 2.5% (w/v) beta-cyclodextrin (beta-CD) (Sigma is Chemical Co.; C4767) and 2.5% (w/v) gamma-cyclodextrin (gamma-CD) (Sigma Chemical Co.; 4892) on antigen:antibody binding was investigated. […]

CCCCCCCCCCCCCCCC[n+]1ccccc1 [CPC, cetyl pyridinium chloride]
[125I]cAMP bound to SPA beads, counts per minute (1% lysis reagent, 0.2 pmol cAMP/well): 270 cpm
[125I]cAMP bound to SPA beads, counts per minute (1% lysis reagent, 0.4 pmol cAMP/well): 239 cpm
[125I]cAMP bound to SPA beads, counts per minute (1% lysis reagent, 0.8 pmol cAMP/well): 232 cpm
[125I]cAMP bound to SPA beads, counts per minute (1% lysis reagent, 1.6 pmol cAMP/well): 147 cpm
[125I]cAMP bound to SPA beads, counts per minute (1% lysis reagent, 3.2 pmol cAMP/well): 125 cpm
[125I]cAMP bound to SPA beads, counts per minute (1% lysis reagent, 6.4 pmol cAMP/well): 103 cpm
[125I]cAMP bound to SPA beads, counts per minute (1% lysis reagent, 12.8 pmol cAMP/well): 80 cpm
[125I]cAMP bound to SPA beads, counts per minute (1% lysis reagent, NSB (no specific antisera)): 121 cpm
[125I]cAMP bound to SPA beads, counts per minute (1% lysis reagent, Zero standard): 466 cpm
[125I]cAMP bound to SPA beads, counts per minute (2% lysis reagent, 0.2 pmol cAMP/well): 133 cpm
[125I]cAMP bound to SPA beads, counts per minute (2% lysis reagent, 0.4 pmol cAMP/well): 128 cpm
[125I]cAMP bound to SPA beads, counts per minute (2% lysis reagent, 0.8 pmol cAMP/well): 108 cpm
[125I]cAMP bound to SPA beads, counts per minute (2% lysis reagent, 1.6 pmol cAMP/well): 82 cpm
[125I]cAMP bound to SPA beads, counts per minute (2% lysis reagent, 3.2 pmol cAMP/well): 77 cpm
[125I]cAMP bound to SPA beads, counts per minute (2% lysis reagent, 6.4 pmol cAMP/well): 73 cpm
[125I]cAMP bound to SPA beads, counts per minute (2% lysis reagent, 12.8 pmol cAMP/well): 50 cpm
[125I]cAMP bound to SPA beads, counts per minute (2% lysis reagent, NSB (no specific antisera)): 133 cpm and 134 cpm
[125I]cAMP bound to SPA beads, counts per minute (2% lysis reagent, Zero standard): 173 cpm
